Laboratory results as given in paper PMC8042240.

The chains behind the UniProt entries cited, without tags or fusion partners. Residues count along the entry.
UniProt P31041, 20-218: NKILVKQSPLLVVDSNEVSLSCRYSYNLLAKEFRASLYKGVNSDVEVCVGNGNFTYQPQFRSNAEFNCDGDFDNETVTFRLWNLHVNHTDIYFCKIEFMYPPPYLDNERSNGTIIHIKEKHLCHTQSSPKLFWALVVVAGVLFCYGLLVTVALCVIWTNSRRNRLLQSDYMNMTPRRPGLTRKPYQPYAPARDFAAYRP

Target: CD28 (Mus musculus (BALB/c spleen CD8+ T cells)) (UniProt P31041)
Assay: flow cytometry cell bridging
Conditions: control NP without CD28 aptamer could not bridge CD8+ T cells and tumor cells; 2'-F on pyrimidines; Opti-MEM, 37 C, 2 h, 100 nM RNA NP, 10^5 CD8+ T cells and tumor cells 1:1; NPs annealed in 10 mM Tris, 50 mM NaCl, 1 mM EDTA, pH 7.5; protein on the cell surface; letters put together from the description

Sequence: GGGACAGCACACAGAGCAGCAGCUUGAGACUCAGCGUACUUCUGGCAAGGUACGGUACUUUUGCCAUGUGUAUGUGGGCGCAGACGGCGAUACCUAGUAGUCACCUAGUGCUCUAUCGUAGAAGUGUAGCAUGACGCC / GGGACCGAAAAAGACCUGACUUCUAUACUAAGUCUACGUUCCCGGCGUCAUGCUACACUUCUACGAUAGAGCACUAGGUGACUACUAGGUAUCGCCGUCUGCGCCCACAUACUUUGUUGAUCC / GGAUCAAUCAUGGCAAAAGUACCGUACCUUGCCAGAAGUACGCUGAGUCUCAAGCUGCUGCUCUGUGUGCUGUCCC [3WJ/PSMAapt RNA NP (no CD28 aptamer)]
- binding result: no binding

For at least one entry, the source does not settle the construct or the ends of the probe. At least one result comes from cells or an extract, where the contact may be indirect. No signal at the amounts used counts as a negative. At least one verdict was read from the data and is not stated in words by the source.
